{
  "source": "PubChem BioAssay AID590",
  "about": "(National Center for Advancing Translational Sciences (NCATS), 2007)",
  "note": "Several values for one entry are separate records, joined by “and”; a condition that tells them apart may be missing. Equal values may be shown once. Screen size: about 59,000 compounds; about 6,500 (11%) were called active. Inconclusive means that the source gave no clear call. Such entries were picked first, then a sample of the others. Cut-off read from the data, not from the text of the source: active = max dye-equivalent concentration above about 10 nM; inconclusive = mostly about 1.1 nM to 9.6 nM; inactive = weaker than that.",
  "data": [
    {"assay": "qHTS Assay for Spectroscopic Profiling in A350 Spectral Region", "details": "Compound autofluorescence, 340/450 nm, Alexa 350 dye-equivalents; hits give high values", "values": [
      {"smiles": "O=C(C1CCN(c2ccc(N3CCOCC3)nn2)CC1)N1CCN(c2ccc(F)cc2)CC1", "max dye-equivalent concentration": "active: 4.4e-07 M"},
      {"smiles": "CCCc1cc(=O)oc2c(CN3CCN(C)CC3)c(O)c(Cl)cc12", "max dye-equivalent concentration": "active: 1.4e-05 M"},
      {"smiles": "COCCNc1nc(-c2ccc(N(C)C)cc2)nc2ccccc12", "max dye-equivalent concentration": "inconclusive: 2.1e-09 M"},
      {"smiles": "CC(=O)N1CCN(S(=O)(=O)c2ccc(S(=O)(=O)NC3CC3)cc2)CC1", "max dye-equivalent concentration": "inconclusive: 1.4e-09 M"},
      {"smiles": "COc1ccc(CNS(=O)(=O)c2ccc3oc(C(=O)O)c(C)c3c2)cc1", "max dye-equivalent concentration": "inconclusive: 3.9e-09 M"},
      {"smiles": "CCOC(=O)C(C(=O)OCC)C1N=C(N)N=C2Oc3ccccc3N21", "note": "(centres undefined)", "max dye-equivalent concentration": "active: 4.2e-07 M"},
      {"smiles": "COC(=O)[C@H](C)NC(=O)Nc1ccc(OC)c(OC)c1", "max dye-equivalent concentration": "inactive"},
      {"smiles": "O=S(=O)(O)c1cc(N=Nc2cccc3ccccc23)c(O)c2ncccc12", "max dye-equivalent concentration": "inactive"},
      {"smiles": "COCCn1c(-c2cc(OC)c(OC)c(OC)c2)nc2oc3ccccc3c(=O)c2c1=O", "max dye-equivalent concentration": "inconclusive: 1.7e-09 M"},
      {"smiles": "CCNc1nc(OC)nc(Oc2ccc(=O)n(-c3ccccc3)n2)n1", "max dye-equivalent concentration": "inactive"},
      {"smiles": "CCOc1ccc(OCc2cccc(C(=O)N3CCOCC3)c2)cc1", "max dye-equivalent concentration": "inactive"},
      {"smiles": "Cc1noc(C)c1-c1cc(NCCN2CCOCC2)ncn1", "max dye-equivalent concentration": "inactive"},
      {"smiles": "c1ccc(CN2CCN(CCN3CCn4c3nc3ccccc34)CC2)cc1", "max dye-equivalent concentration": "inactive"},
      {"smiles": "CC(C)C(=O)Cc1ccc2ccccc2n1", "max dye-equivalent concentration": "inconclusive: 5.4e-09 M"},
      {"smiles": "C=CCn1c(=O)[nH]c2cc(C(=O)N3CCN(c4ccc(C(C)=O)cc4)CC3)ccc2c1=O", "max dye-equivalent concentration": "inconclusive: 3.1e-09 M"},
      {"smiles": "CCC(C)(C)n1nnnc1C(c1cc2ccc(OC)cc2[nH]c1=O)N1CCc2ccccc2C1", "note": "(centres undefined)", "max dye-equivalent concentration": "active: 1.1e-08 M"},
      {"smiles": "CC1CCCC(C)N1C(=O)CSc1nc2ncnc(N)c2[nH]1", "note": "(centres undefined)", "max dye-equivalent concentration": "inconclusive: 1.7e-09 M"},
      {"smiles": "Cc1ccc(S(=O)(=O)c2c(N)n(C)c3nc4ccccc4nc23)cc1", "max dye-equivalent concentration": "active: 3.6e-06 M"},
      {"smiles": "NC(=O)c1cccc(N)c1", "max dye-equivalent concentration": "inactive"},
      {"smiles": "O=c1cc(-c2ccccc2)c2ccc(O)c(CN3CCCCC3)c2o1", "max dye-equivalent concentration": "active: 2.3e-07 M"},
      {"smiles": "CCN1CCN(c2ncnc3c2oc2nc(C(C)C)c4c(c23)CCC4)CC1", "max dye-equivalent concentration": "inactive"},
      {"smiles": "CCN(CC)C(=O)Oc1ccc2c(=O)c(-c3ccc(OC)cc3)c(C)oc2c1", "max dye-equivalent concentration": "inconclusive: 1.8e-09 M"},
      {"smiles": "Cc1ccc2nc3c(cc(C(N)=S)c(=N)n3CCCOC(C)C)c(=O)n2c1", "max dye-equivalent concentration": "active: 2e-07 M"},
      {"smiles": "CN(C)C/C=C(\\c1ccc(Br)cc1)c1cccnc1", "max dye-equivalent concentration": "inconclusive: 1.3e-09 M and inconclusive: 4.2e-09 M"},
      {"smiles": "Cc1nn2c3c(cnc2c1-c1ccccc1)C(=O)CCC3", "max dye-equivalent concentration": "inconclusive: 7.9e-09 M"},
      {"smiles": "CC(SC1CCCC1)C(=O)NC(C)(C#N)C(C)C", "note": "(centres undefined)", "max dye-equivalent concentration": "inactive"},
      {"smiles": "CCOC(=O)N1CCN(CCC(=O)Nc2cccc(Br)c2)CC1", "max dye-equivalent concentration": "inactive"},
      {"smiles": "CC(C)(C)c1ccc(C(=O)N2CCC(C(=O)NCC3CCCO3)CC2)cc1", "note": "(centres undefined)", "max dye-equivalent concentration": "inconclusive: 1.4e-09 M"},
      {"smiles": "Cc1cccc(-c2noc(CCC(=O)NCc3ccccc3)n2)c1", "max dye-equivalent concentration": "inconclusive: 1.3e-09 M"},
      {"smiles": "Cc1ccc(Nc2nc(C(=O)NCc3ccco3)cs2)cc1", "max dye-equivalent concentration": "inconclusive: 1.4e-09 M"},
      {"smiles": "Cc1[nH]c2ccccc2c1C(=O)COC(=O)C1CC(=O)N(Cc2ccco2)C1", "note": "(centres undefined)", "max dye-equivalent concentration": "inactive"},
      {"smiles": "CCOc1ccccc1NC(=O)CC1Nc2ccccc2NC1=O", "note": "(centres undefined)", "max dye-equivalent concentration": "active: 2.7e-08 M"},
      {"smiles": "O=c1c2cc(N3CCOCC3)ccc2[nH]c(=S)n1CCCN1CCN(c2ccccc2F)CC1", "max dye-equivalent concentration": "inconclusive: 2.8e-09 M"},
      {"smiles": "CSc1nc2sc3c(c2c(=O)n1C1CCCCC1)CCN(C)C3", "max dye-equivalent concentration": "inconclusive: 4.2e-09 M"},
      {"smiles": "Cc1cccc(N2CCN(C(=O)c3ccncc3)CC2C)c1", "note": "(centres undefined)", "max dye-equivalent concentration": "inconclusive: 1.1e-09 M"},
      {"smiles": "CN1CC[C@@]2(CCCN(C(=O)c3cccc(F)c3)C2)C1", "max dye-equivalent concentration": "inactive"},
      {"smiles": "COc1cc(C)nc(NS(=O)(=O)c2ccccc2)n1", "max dye-equivalent concentration": "inactive"},
      {"smiles": "COc1ccccc1OCCOCCn1cnc2ccccc2c1=O", "max dye-equivalent concentration": "inconclusive: 1.4e-09 M"},
      {"smiles": "CCCCCOC(=O)c1ccccc1C(=O)O", "max dye-equivalent concentration": "inconclusive: 1.8e-09 M"},
      {"smiles": "Cc1ccc(C)c(OCc2nnc(NC(=O)c3ccco3)s2)c1", "max dye-equivalent concentration": "inconclusive: 4e-09 M"},
      {"smiles": "O=C(CCN1C(=O)C2C3C=CC(C3)C2C1=O)NC1CCCc2ccccc21", "note": "(centres undefined)", "max dye-equivalent concentration": "inactive"},
      {"smiles": "O=C(Cn1cnc2ccccc2c1=O)Nc1ccc(-c2nnc3n2CCCCC3)cc1", "max dye-equivalent concentration": "inconclusive: 3.7e-09 M"},
      {"smiles": "CCCn1c(Nc2nc3ccccc3n2C)nc2ccccc21", "max dye-equivalent concentration": "inconclusive: 1.2e-09 M"},
      {"smiles": "CCc1cc(=O)oc2cc(OC(C)=O)cc(OC(C)=O)c12", "max dye-equivalent concentration": "active: 1.2e-06 M"},
      {"smiles": "Cc1nn(-c2ccccc2)c(C)c1NC(=O)c1cccs1", "max dye-equivalent concentration": "inconclusive: 2.9e-09 M"},
      {"smiles": "CC(C)(C)c1ccc(-c2noc(CCC(N)=O)n2)cc1", "max dye-equivalent concentration": "inconclusive: 2.5e-09 M"},
      {"smiles": "O=C(COc1ccc(S(=O)(=O)Nc2ccccc2)cc1)N1CCOCC1", "max dye-equivalent concentration": "inconclusive: 3e-09 M"},
      {"smiles": "COc1ccc(-c2nc3cc(NC(=O)c4ccc5c(c4)OCO5)ccc3o2)cc1", "max dye-equivalent concentration": "inconclusive: 2.4e-09 M"},
      {"smiles": "CCC(C)(C(=O)NC1CCCCC1)N(Cc1ccco1)C(=O)c1cnccn1", "note": "(centres undefined)", "max dye-equivalent concentration": "inactive"},
      {"smiles": "N#Cc1c(N)oc(-c2ccccc2)c1-c1ccccc1", "max dye-equivalent concentration": "inconclusive: 8.8e-09 M"},
      {"smiles": "Cc1ccc2ncnc(NCCCN3CCOCC3)c2c1", "max dye-equivalent concentration": "inconclusive: 2.2e-09 M"},
      {"smiles": "CCc1ccc2[nH]c(=O)c(CN(CCCN3CCOCC3)C(=O)Nc3ccc(F)cc3)cc2c1", "max dye-equivalent concentration": "active: 1e-08 M"},
      {"smiles": "Cc1ccc(-c2ccc(=O)n(CC(=O)NCCN3C(C)CCCC3C)n2)cc1", "note": "(centres undefined)", "max dye-equivalent concentration": "inconclusive: 1.2e-09 M"},
      {"smiles": "CC(C)(C)c1ccc2c(c1)OCC(C(=O)O)O2", "note": "(centres undefined)", "max dye-equivalent concentration": "inconclusive: 1.8e-09 M"},
      {"smiles": "Cc1nc2cc(N3CCCCC3)c(NC(=O)c3cccnc3)cc2c(=O)n1Cc1ccccc1", "max dye-equivalent concentration": "active: 1.1e-08 M"},
      {"smiles": "COC(=O)c1ccccc1NC(=O)Nc1cc(C)cc(C)n1", "max dye-equivalent concentration": "inconclusive: 2.8e-09 M"},
      {"smiles": "COC(=O)c1ccccc1NC(=O)CSc1nc(NC(=O)c2ccccc2)c2c(C)c(C)oc2n1", "max dye-equivalent concentration": "inconclusive: 8.4e-09 M"},
      {"smiles": "CC(=O)Nc1nc2ncc(C=O)nc2c(=O)[nH]1", "max dye-equivalent concentration": "active: 1.2e-07 M"},
      {"smiles": "Cc1ocnc1C(=O)Nc1ccc(Cl)cc1", "max dye-equivalent concentration": "active: 2e-08 M"}
    ]}
  ]
}
